Values of other authors, collected in PMC12990809.
The direction of at least one scale is not stated here. For some assays here: Tags and fusion partners may be left off the protein sequences shown.

What was measured:
Test in all cases: pull-down
SRSF2 (Homo sapiens) = target: T1, SRSF2 (Homo sapiens) (UniProt Q01130); conditions: 20 nM protein, 1.5 uM RNA pool; 20 mM HEPES pH 7.8, 70 mM KCl, 10 mM NaCl, 10% glycerol, 2 mM DTT, 0.1 ug/uL BSA; 30 min, 4 C; purified recombinant protein; residues 1-120; only the motif is given; cited from earlier work
T1 sequence: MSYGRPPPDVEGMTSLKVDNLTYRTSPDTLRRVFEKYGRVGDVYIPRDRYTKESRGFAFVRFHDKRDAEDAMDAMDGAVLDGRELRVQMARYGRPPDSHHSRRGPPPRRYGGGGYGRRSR

[1] = target: T2, CG33714 (Drosophila melanogaster) (UniProt Q0KHQ1); conditions: 20 nM protein, 1.5 uM RNA pool; 20 mM HEPES pH 7.8, 70 mM KCl, 10 mM NaCl, 10% glycerol, 2 mM DTT, 0.1 ug/uL BSA; 30 min, 4 C; purified recombinant protein; protein details: N-terminal GST (kept); only the motif is given; cited from earlier work
T2 sequence: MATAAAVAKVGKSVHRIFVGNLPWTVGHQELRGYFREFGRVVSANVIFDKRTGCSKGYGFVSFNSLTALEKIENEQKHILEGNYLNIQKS

[2] = target: T3, Rnp4F (Drosophila melanogaster) (UniProt Q9W4D2); conditions: 20 nM protein, 1.5 uM RNA pool; 20 mM HEPES pH 7.8, 70 mM KCl, 10 mM NaCl, 10% glycerol, 2 mM DTT, 0.1 ug/uL BSA; 30 min, 4 C; purified recombinant protein; residues 676-845; protein details: N-terminal GST (kept); only the motif is given; cited from earlier work
T3 sequence: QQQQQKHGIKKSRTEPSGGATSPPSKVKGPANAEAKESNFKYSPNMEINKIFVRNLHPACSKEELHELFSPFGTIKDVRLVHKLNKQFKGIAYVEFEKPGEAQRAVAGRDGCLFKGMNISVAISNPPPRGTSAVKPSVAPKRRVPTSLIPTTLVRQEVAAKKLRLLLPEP

TUT1 (Homo sapiens) = target: T4, TUT1 (Homo sapiens) (UniProt F5H0R1); conditions: 20 nM protein, 1.5 uM RNA pool; 20 mM HEPES pH 7.8, 70 mM KCl, 10 mM NaCl, 10% glycerol, 2 mM DTT, 0.1 ug/uL BSA; 30 min, 4 C; purified recombinant protein; only the motif is given; cited from earlier work
T4 sequence: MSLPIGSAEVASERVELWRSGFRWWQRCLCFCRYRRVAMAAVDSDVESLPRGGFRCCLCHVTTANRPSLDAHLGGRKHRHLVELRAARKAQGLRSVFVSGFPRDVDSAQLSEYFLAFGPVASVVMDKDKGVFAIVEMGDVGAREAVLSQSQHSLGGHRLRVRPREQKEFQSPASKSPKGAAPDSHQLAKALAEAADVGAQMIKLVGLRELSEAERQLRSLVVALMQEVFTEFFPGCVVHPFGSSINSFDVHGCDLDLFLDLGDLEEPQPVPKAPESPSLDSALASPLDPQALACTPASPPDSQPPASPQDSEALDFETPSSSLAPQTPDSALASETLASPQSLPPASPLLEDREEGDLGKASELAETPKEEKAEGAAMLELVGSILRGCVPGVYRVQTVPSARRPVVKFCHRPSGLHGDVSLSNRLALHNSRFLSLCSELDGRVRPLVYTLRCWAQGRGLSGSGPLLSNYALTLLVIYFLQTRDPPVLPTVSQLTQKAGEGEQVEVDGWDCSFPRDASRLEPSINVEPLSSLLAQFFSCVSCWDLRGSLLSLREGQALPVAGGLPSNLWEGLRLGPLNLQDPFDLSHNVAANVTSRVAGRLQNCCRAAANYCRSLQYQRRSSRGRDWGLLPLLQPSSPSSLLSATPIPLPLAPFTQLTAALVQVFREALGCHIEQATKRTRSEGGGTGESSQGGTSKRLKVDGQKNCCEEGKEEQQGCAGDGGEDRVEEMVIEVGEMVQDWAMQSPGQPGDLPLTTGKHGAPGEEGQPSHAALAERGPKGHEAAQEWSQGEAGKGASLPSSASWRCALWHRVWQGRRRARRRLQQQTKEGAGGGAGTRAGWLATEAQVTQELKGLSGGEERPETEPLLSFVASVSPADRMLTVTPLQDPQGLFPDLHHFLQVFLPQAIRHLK

RBM8A (Homo sapiens) = RBM8A (Homo sapiens) (UniProt Q9Y5S9); conditions: 20 nM protein, 1.5 uM RNA pool; 20 mM HEPES pH 7.8, 70 mM KCl, 10 mM NaCl, 10% glycerol, 2 mM DTT, 0.1 ug/uL BSA; 30 min, 4 C; purified recombinant protein; residues 22-174; protein details: N-terminal GST (kept); only the motif is given; cited from earlier work

Sequence: AGGAGAG [RNAcompete motif RNCMPT00072]
- binding signal (z-score (mean of top ten 7-mers)) (SRSF2 (Homo sapiens)): 5.69

Sequence: AGGGCGU [RNAcompete motif RNCMPT00009]
- binding signal (z-score (mean of top ten 7-mers)) [1]: 5.74

Sequence: CAGAC [RNAcompete motif RNCMPT00060]
- binding signal (z-score (mean of top ten 7-mers)) [2]: 5.2

Sequence: CGAUACU [RNAcompete motif RNCMPT00075]
- binding signal (z-score (mean of top ten 7-mers)) (TUT1 (Homo sapiens)): 4.2

Sequence: UGCGCGC [RNAcompete motif RNCMPT00056]
- binding signal (z-score (mean of top ten 7-mers)) (RBM8A (Homo sapiens)): 4.37
